These are yes or no findings as the source states them, for the method shown. Binding seen in cells or lysates may run through a third protein. Some results given as binding are weak or reduced against the parent protein; the word gives no strength.

Sequences of proteins named here, by UniProt entry; tags and fusion partners are left off.
UniProt Q92734: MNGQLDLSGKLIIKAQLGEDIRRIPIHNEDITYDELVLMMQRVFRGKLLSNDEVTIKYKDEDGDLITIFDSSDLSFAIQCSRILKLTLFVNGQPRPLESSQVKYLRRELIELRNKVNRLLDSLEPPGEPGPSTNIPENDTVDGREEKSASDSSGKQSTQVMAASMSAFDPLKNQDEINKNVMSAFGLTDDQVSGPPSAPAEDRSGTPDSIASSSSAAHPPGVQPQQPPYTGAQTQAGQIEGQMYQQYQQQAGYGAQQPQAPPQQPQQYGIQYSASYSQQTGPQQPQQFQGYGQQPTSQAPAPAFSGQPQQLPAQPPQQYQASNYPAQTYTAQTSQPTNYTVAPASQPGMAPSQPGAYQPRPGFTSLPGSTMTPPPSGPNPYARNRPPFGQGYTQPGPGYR
UniProt Q00610: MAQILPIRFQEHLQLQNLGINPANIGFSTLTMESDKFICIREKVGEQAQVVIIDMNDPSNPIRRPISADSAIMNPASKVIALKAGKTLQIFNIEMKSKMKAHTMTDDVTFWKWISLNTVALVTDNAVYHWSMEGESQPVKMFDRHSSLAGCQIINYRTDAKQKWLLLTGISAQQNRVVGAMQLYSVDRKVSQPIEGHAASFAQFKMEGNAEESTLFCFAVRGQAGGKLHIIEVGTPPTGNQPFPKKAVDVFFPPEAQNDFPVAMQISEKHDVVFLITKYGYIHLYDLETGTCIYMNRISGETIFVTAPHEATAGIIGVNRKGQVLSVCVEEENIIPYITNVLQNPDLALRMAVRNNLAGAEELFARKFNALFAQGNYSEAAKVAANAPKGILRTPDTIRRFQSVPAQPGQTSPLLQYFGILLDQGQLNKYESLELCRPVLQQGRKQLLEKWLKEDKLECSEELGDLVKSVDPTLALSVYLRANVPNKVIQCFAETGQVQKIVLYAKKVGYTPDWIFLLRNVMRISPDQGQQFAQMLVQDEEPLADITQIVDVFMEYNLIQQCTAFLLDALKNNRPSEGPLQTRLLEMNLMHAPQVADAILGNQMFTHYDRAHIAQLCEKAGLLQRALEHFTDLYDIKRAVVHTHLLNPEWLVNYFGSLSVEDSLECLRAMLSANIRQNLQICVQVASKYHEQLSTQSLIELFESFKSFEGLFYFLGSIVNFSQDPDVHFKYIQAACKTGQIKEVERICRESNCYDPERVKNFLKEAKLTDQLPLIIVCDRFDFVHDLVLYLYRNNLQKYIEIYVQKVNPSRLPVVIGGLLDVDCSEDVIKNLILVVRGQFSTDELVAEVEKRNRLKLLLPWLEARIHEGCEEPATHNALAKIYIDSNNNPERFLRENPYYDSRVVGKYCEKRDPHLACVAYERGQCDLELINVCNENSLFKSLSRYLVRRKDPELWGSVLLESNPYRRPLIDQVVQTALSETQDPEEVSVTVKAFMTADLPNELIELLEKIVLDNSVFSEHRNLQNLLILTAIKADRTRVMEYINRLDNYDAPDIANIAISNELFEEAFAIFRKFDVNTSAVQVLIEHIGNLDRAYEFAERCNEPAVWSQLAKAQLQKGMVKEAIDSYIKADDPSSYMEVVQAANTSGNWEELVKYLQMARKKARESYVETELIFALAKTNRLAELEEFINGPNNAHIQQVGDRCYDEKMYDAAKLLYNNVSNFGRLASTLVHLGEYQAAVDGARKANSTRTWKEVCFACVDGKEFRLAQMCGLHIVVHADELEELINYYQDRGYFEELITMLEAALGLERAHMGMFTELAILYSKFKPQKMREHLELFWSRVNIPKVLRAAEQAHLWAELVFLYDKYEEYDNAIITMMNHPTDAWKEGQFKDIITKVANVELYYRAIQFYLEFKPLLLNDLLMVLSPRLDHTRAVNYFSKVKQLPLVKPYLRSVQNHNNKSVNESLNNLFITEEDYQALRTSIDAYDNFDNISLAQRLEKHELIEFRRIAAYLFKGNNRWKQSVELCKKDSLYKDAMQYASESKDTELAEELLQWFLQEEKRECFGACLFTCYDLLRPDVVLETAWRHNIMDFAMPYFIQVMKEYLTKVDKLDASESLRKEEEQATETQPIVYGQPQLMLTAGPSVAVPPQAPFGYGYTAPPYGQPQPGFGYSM

The target in this test is trafficking from ER to Golgi regulator (TFG) (human (endogenous in MNNG/HOS and U2OS)) (UniProt Q92734). The experiment in a line: co-IP; endogenous co-IP from RIPA lysates of osteosarcoma cells with anti-CLTC or anti-TFG antibody, IgG as negative control; magnetic beads, PBS/0.1% Triton washes; Western blot.

For the substance “clathrin heavy chain (CLTC) (from UniProt Q00610 1-1675)”, the binding entry is reported as “binds”.

(Values after publication PMC8214859.)
